Here are results for 3 substances from doi:10.64898/2025.12.02.691793.

Amino acid sequences for entries named in this document (tags omitted). A change or cut given only in a name is not applied to a line headed by its entry.
UniProt P0C0S5: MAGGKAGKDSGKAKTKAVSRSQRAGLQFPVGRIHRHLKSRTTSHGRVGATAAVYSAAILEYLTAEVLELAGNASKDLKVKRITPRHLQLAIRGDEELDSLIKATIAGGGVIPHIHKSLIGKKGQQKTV
UniProt Q9Y4A5: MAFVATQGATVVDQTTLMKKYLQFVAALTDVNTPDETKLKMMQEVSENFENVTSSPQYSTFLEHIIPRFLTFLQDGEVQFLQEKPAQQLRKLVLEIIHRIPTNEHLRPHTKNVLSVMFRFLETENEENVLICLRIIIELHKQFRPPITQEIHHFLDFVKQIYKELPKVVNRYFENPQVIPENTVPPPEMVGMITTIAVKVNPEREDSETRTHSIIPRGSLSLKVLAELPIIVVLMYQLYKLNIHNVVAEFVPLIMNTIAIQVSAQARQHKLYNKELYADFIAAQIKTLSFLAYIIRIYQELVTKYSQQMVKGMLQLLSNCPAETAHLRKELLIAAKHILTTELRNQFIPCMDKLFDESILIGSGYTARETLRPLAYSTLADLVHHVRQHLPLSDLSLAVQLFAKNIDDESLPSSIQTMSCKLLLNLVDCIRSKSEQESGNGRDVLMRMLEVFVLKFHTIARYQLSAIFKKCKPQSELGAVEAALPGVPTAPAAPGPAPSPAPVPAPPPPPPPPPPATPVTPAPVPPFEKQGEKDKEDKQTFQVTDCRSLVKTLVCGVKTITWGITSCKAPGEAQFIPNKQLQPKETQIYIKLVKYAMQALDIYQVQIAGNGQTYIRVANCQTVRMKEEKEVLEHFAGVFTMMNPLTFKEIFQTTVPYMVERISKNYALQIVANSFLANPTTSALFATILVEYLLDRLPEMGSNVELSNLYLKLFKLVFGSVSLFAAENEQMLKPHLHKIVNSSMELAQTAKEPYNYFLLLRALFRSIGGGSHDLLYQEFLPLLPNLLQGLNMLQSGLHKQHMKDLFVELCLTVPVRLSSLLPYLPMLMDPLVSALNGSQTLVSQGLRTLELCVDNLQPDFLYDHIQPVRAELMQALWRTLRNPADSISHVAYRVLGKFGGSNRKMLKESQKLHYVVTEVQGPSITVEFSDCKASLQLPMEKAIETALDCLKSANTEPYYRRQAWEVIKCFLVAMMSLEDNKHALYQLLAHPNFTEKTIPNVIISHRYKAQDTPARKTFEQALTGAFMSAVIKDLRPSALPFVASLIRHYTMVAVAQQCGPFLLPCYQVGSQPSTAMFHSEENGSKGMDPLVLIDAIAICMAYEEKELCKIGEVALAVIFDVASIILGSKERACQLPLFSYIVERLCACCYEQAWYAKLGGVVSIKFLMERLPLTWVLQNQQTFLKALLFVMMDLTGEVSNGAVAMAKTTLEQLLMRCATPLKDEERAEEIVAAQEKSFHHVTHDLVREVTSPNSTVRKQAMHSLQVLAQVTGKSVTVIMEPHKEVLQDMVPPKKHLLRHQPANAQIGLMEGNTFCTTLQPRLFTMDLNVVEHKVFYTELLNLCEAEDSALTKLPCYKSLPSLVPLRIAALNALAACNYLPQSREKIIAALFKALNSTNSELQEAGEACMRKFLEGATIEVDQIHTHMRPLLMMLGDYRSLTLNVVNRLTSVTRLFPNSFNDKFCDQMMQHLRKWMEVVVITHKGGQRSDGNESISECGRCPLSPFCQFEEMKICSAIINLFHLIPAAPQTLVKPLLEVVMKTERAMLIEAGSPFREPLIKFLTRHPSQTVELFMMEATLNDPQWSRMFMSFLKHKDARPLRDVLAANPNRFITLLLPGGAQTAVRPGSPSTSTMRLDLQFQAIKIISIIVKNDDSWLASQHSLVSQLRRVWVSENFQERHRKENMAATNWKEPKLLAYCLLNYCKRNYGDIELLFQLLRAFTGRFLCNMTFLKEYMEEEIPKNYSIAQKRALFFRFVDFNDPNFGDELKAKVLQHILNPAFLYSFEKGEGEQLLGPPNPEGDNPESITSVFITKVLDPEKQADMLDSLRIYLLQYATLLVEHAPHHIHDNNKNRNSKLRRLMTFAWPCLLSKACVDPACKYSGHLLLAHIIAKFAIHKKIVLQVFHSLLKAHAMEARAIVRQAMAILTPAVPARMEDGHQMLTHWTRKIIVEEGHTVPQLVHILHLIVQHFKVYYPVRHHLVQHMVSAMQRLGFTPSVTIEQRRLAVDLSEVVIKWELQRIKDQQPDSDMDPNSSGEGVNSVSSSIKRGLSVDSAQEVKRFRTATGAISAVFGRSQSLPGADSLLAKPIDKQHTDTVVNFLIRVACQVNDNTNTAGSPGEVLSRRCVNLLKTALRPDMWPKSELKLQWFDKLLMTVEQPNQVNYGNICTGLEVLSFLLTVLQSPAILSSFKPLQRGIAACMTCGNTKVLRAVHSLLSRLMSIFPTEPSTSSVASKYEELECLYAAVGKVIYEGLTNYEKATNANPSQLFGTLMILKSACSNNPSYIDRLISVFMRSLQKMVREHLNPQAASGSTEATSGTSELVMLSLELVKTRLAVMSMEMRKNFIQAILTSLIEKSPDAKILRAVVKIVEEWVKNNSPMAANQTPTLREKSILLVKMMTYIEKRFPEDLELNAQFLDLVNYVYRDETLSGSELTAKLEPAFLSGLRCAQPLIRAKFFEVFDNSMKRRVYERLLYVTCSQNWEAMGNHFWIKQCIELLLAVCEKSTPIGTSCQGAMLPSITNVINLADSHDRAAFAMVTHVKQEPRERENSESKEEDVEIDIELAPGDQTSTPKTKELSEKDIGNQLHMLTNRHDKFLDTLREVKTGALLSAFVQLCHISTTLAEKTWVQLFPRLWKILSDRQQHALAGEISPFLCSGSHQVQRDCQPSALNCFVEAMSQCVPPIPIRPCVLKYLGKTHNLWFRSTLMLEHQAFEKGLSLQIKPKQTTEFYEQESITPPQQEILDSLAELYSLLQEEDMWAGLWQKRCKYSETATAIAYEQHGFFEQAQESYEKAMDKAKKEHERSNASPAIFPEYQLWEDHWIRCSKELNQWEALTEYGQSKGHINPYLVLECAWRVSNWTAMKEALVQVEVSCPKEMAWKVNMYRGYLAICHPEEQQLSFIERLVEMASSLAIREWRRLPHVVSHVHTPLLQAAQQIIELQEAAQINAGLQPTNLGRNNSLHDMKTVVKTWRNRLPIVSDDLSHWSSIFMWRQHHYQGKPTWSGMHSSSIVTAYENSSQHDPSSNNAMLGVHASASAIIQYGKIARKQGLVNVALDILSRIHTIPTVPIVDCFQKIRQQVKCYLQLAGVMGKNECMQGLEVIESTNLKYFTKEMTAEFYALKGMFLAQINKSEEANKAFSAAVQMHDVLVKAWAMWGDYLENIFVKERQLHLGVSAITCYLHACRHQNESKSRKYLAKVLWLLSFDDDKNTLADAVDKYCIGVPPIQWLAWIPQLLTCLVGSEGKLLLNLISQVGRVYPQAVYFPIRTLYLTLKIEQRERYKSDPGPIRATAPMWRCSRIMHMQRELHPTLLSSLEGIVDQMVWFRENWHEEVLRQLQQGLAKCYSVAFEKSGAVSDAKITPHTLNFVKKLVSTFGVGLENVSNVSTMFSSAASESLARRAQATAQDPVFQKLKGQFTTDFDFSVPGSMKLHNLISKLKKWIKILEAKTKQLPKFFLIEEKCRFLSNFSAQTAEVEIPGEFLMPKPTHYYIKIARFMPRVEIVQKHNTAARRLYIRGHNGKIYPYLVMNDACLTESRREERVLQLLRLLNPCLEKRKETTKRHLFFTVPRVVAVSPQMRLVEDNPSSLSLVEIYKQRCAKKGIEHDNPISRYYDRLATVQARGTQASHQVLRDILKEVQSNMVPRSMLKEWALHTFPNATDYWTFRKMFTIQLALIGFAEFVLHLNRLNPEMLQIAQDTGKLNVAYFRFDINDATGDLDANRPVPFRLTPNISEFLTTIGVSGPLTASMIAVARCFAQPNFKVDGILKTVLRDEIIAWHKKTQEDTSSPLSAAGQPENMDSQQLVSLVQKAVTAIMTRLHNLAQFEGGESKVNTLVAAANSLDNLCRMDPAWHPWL

No constants are given. Whether binding was seen depends on the method and setting. Binding seen in cells or lysates may run through a third protein. Some entries that bind do so weakly or less than the wild type.

In experiment [1] the target is T1, Transcriptional Intermediary Factor 1γ (TIF1γ) (human (endogenous in HSC-3 and HSC-4)) (UniProt Q9UPN9).
T1 sequence: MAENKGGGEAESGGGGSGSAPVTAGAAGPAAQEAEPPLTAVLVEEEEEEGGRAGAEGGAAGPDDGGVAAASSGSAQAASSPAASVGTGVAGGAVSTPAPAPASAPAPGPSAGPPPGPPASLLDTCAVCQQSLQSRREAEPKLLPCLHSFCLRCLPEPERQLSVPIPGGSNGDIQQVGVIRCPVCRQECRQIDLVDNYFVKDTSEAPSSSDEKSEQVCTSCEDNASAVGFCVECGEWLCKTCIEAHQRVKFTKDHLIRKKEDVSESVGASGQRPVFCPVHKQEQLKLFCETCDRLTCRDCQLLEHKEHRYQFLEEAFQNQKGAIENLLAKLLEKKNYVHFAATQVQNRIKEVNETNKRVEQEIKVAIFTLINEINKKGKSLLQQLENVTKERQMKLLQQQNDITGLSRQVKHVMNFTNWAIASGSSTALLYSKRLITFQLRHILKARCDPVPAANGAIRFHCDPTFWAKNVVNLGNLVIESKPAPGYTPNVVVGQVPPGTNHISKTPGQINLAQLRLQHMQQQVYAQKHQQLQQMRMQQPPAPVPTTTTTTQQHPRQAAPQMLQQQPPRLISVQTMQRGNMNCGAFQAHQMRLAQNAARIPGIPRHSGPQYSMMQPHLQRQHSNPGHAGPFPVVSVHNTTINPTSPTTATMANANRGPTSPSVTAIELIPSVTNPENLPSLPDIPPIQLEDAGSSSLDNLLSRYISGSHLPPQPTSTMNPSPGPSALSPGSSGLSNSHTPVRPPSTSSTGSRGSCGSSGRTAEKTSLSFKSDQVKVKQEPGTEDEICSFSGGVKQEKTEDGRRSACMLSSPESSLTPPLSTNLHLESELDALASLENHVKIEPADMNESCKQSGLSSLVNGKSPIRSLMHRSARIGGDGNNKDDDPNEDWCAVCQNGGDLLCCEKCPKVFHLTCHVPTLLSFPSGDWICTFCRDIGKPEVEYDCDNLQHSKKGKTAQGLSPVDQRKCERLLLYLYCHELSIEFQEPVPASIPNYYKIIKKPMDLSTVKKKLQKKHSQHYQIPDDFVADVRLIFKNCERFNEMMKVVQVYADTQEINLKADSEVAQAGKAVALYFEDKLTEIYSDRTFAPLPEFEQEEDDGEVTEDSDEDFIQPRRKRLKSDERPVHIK
The experiment is described as follows: co-IP.

The target in experiment [2] is T1, Transcriptional Intermediary Factor 1γ (TIF1γ) (human (endogenous in HSC-3 and HSC-4)). The experiment is described as follows: FRET or BRET.

Turning to H2A.Z (from UniProt P0C0S5 1-128), the binding result in experiment [1] and in experiment [2] was “binds” in each case.
For the substance TRRAP (from UniProt Q9Y4A5 1-3859), the binding entry in experiment [1] and in experiment [2] was “binds” each time.
With “acetylated H2A.Z (from UniProt P0C0S5 1-128)”, in experiment [1], the binding result is listed as “binds”.
